{"source": "paper PMC5620139", "target": "recombinant human platelet derived growth factor-C (human), Q9NRA1", "experiment": "ELISA; cell-free binding assay; Maxisorp Nunc 96-well plates coated with 1 μg/ml PDGF-C in PBS, blocked with 2% BSA in PBS; receptor/hFc chimera 1 μg/ml, 37°C for 30 min in blocking buffer with 1 mM CaCl2 and MgCl2; detected with alkaline phosphatase-conjugated anti-human Fc goat IgG, OD 405 nm; both purified", "conditions": "remark: other sources report otherwise", "note": "Results are given in words; binding and its absence hold for the method and conditions named.", "data": [{"binder": "VEGFR-2/hFc chimera, P35968 20-764 (Fc fusion) ASVGLPSVSLDLPRLSIQKDILTIKANTTLQITCRGQRDLDWLWPNNQSGSEQRVEVTECSDGLFCKTLTIPKVIGNDTGAYKCFYRETDLASVIYVYVQDYRSPFIASVSDQHGVVYITENKNKTVVIPCLGSISNLNVSLCARYPEKRFVPDGNRISWDSKKGFTIPSYMISYAGMVFCEAKINDESYQSIMYIVVVVGYRIYDVVLSPSHGIELSVGEKLVLNCTARTELNVGIDFNWEYPSSKHQHKKLVNRDLKTQSGSEMKKFLSTLTIDGVTRSDQGLYTCAASSGLMTKKNSTFVRVHEKPFVAFGSGMESLVEATVGERVRIPAKYLGYPPPEIKWYKNGIPLESNHTIKAGHVLTIMEVSERDTGNYTVILTNPISKEKQSHVVSLVVYVPPQIGEKSLISPVDSYQYGTTQTLTCTVYAIPPPHHIHWYWQLEEECANEPSQAVSVTNPYPCEEWRSVEDFQGGNKIEVNKNQFALIEGKNKTVSTLVIQAANVSALYKCEAVNKVGRGERVISFHVTRGPEITLQPDMQPTEQESVSLWCTADRSTFENLTWYKLGPQPLPIHVGELPTPVCKNLDTLWKLNATMFSNSTNDILIMELKNASLQDQGDYVCLAQDRKTKKRHCVVRQLTVLERVAPTITGNLENQTTSIGESIEVSCTASGNPPPQIMWFKDNETLVEDSGIVLKDGNRNLTIRRVRKEDEGLYTCQACSVLGCAKVEAFFIIEGAQEKTNLE", "values": [{"measurement": "binding", "result": "no binding (tested: 1 μg/ml)"}]}]}
